PMC5699845
These are yes or no findings as the source states them, for the method shown. Binding seen in cells or lysates may run through a third protein. Some results given as binding are weak or reduced against the parent protein; the word gives no strength.

Target: T1, TRAF2, endogenous (human (endogenous in 293T, HeLa, THP1)) (UniProt Q12933)
T1 sequence: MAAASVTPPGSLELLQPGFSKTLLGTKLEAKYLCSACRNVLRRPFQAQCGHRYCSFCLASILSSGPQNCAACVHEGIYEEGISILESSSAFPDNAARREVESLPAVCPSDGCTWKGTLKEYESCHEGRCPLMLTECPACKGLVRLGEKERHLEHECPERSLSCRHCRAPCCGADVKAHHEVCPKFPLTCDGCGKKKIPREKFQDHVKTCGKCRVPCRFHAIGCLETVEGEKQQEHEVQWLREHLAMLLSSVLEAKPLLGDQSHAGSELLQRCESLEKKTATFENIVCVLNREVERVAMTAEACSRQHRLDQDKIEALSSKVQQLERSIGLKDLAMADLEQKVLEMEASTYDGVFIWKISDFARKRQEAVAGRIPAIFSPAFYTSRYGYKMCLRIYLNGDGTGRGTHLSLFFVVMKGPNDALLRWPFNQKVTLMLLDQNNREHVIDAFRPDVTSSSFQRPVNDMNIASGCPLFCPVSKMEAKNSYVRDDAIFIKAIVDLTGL
Assay: co-IP; endogenous proteins; lysates of non-stimulated 293T, HeLa and THP1 cells immunoprecipitated with anti-TRAF2, 3 or 6 antibodies, Western blot

B1: IKKε, endogenous (protein, UniProt Q14164 1-716)
chain: MQSTANYLWHTDDLLGQGATASVYKARNKKSGELVAVKVFNTTSYLRPREVQVREFEVLRKLNHQNIVKLFAVEETGGSRQKVLVMEYCSSGSLLSVLESPENAFGLPEDEFLVVLRCVVAGMNHLRENGIVHRDIKPGNIMRLVGEEGQSIYKLTDFGAARELDDDEKFVSVYGTEEYLHPDMYERAVLRKPQQKAFGVTVDLWSIGVTLYHAATGSLPFIPFGGPRRNKEIMYRITTEKPAGAIAGAQRRENGPLEWSYTLPITCQLSLGLQSQLVPILANILEVEQAKCWGFDQFFAETSDILQRVVVHVFSLSQAVLHHIYIHAHNTIAIFQEAVHKQTSVAPRHQEYLFEGHLCVLEPSVSAQHIAHTTASSPLTLFSTAIPKGLAFRDPALDVPKFVPKVDLQADYNTAKGVLGAGYQALRLARALLDGQELMFRGLHWVMEVLQATCRRTLEVARTSLLYLSSSLGTERFSSVAGTPEIQELKAAAELRSRLRTLAEVLSRCSQNITETQESLSSLNRELVKSRDQVHEDRSIQQIQCCLDKMNFIYKQFKKSRMRPGLGYNEEQIHKLDKVNFSHLAKRLLQVFQEECVQKYQASLVTHGKRMRVVHETRNHLRLVGCSVAACNTEAQGVQESLSKLLEELSHQLLQDRAKGAQASPPPIAPYPSPTRKDLLLHMQELCEGMKLLASDLLDNNRIIERLNRVPAPPDV
In the case of B1, the binding is reported as “binds”.
